Measurements taken from publication PMC11317144.
These are yes or no findings as the source states them, for the method shown. Binding seen in cells or lysates may run through a third protein. These calls come from enrichment with a bait or labelling near it, and not all partners need be listed.

Sequences of proteins named here, by UniProt entry; tags and fusion partners are left off.
UniProt P56524: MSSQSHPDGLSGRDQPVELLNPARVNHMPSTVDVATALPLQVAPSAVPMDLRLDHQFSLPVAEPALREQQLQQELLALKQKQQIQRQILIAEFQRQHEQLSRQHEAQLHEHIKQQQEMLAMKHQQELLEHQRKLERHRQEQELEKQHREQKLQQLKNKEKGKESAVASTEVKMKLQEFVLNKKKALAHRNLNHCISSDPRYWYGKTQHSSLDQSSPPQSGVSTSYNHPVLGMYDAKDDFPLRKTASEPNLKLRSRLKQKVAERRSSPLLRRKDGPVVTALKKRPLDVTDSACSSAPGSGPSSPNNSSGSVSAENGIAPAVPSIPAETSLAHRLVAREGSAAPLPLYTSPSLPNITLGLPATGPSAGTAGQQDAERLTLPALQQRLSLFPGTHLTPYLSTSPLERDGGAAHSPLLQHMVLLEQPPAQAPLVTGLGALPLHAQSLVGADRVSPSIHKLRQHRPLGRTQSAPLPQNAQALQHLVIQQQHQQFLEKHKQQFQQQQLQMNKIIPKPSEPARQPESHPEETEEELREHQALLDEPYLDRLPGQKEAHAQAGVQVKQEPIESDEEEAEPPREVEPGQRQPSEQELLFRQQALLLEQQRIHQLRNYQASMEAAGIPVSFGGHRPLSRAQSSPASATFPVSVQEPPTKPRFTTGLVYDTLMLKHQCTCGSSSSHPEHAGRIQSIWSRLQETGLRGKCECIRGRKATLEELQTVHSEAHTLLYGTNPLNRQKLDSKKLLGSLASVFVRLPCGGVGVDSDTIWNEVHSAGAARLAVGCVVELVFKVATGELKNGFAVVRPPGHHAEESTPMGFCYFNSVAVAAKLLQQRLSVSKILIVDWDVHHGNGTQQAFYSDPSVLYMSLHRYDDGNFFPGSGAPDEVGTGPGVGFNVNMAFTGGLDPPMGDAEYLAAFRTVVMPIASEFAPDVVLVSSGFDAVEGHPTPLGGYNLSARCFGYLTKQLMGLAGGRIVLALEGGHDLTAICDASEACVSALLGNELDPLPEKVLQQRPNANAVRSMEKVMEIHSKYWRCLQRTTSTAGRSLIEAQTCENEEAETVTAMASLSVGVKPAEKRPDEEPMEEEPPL
UniProt O15379: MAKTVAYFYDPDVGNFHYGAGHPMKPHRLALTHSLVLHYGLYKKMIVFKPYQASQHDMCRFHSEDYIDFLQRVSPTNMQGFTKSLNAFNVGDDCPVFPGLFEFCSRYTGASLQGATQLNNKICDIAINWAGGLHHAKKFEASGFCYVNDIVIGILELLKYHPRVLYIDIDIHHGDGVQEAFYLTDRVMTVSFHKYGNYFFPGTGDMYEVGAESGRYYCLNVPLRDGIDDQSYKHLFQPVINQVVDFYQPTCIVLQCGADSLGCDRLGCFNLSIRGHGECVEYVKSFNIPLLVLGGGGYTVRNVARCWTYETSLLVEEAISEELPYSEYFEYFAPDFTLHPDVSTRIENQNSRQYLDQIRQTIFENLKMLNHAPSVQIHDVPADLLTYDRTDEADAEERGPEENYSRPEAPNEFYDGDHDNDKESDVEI
UniProt Q92769: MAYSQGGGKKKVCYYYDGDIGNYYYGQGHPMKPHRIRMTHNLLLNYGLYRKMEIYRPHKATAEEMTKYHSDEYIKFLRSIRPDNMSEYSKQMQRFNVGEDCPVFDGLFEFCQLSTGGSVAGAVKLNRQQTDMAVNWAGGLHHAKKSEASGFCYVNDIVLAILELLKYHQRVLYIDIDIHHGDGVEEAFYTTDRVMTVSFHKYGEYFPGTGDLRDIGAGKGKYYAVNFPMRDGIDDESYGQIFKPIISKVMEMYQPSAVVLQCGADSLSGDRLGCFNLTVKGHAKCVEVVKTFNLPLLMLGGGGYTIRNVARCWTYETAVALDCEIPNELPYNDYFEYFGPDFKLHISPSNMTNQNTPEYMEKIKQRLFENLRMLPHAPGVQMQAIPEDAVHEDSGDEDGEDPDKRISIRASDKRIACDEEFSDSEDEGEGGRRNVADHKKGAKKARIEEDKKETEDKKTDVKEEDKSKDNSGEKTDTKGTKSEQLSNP
UniProt Q13555: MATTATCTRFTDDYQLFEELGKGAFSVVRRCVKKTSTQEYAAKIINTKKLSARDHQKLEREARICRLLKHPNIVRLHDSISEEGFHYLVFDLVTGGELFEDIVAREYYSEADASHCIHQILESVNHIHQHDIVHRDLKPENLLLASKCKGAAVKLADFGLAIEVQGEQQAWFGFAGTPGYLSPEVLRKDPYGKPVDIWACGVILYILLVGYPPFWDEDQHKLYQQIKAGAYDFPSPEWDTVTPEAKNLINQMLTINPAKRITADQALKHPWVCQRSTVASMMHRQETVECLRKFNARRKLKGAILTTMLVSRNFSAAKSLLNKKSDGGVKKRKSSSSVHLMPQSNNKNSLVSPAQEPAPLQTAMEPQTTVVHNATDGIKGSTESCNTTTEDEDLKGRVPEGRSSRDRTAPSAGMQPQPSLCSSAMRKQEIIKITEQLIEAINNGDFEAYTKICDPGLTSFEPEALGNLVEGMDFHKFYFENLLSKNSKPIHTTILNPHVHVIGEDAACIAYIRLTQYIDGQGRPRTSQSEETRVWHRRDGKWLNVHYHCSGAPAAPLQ
UniProt P63151: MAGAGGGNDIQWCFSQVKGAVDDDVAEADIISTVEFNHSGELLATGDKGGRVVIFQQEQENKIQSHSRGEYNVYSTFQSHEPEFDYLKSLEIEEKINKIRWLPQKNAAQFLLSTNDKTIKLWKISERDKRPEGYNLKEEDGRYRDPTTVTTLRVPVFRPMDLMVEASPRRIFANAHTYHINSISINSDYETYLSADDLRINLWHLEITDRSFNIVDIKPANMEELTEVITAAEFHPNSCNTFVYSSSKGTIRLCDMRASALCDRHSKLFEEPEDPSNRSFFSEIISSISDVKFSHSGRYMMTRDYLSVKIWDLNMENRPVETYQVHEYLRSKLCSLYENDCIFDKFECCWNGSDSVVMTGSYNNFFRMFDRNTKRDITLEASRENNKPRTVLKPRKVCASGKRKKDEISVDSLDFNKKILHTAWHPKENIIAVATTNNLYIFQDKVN
UniProt P26599: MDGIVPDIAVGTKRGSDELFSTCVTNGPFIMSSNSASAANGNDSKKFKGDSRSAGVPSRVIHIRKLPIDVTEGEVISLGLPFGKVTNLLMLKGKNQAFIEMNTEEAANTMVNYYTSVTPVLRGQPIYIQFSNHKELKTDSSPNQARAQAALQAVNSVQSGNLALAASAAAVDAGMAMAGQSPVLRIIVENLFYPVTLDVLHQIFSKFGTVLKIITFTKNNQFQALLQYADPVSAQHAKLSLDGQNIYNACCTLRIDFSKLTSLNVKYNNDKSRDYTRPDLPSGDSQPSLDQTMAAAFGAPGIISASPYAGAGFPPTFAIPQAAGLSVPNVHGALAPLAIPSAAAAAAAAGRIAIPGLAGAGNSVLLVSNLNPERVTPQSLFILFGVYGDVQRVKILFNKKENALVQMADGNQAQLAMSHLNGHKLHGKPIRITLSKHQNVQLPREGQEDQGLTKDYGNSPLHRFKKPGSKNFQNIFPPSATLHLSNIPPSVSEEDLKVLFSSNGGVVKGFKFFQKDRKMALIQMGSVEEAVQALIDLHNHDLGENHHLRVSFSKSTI

target: endogenous GFP-tagged HDAC4 (PITCh knock-in) (human (endogenous in SK-LMS-1)) (UniProt P56524); experiment: affinity purification with mass spectrometry; 800 μg lysate of SK-LMS-1 HDAC4/GFP-PITCH cells on GFP-Trap magnetic agarose beads overnight, V5-Trap beads as control; two independent biological replicates (Figure 6I)

binding, binds:
HDAC3 (endogenous, SK-LMS-1) (from UniProt O15379 1-428)
HDAC2 (endogenous, SK-LMS-1) (from UniProt Q92769 1-488)
calcium/calmodulin-dependent protein kinase II gamma (CAMK2G) (from UniProt Q13555 1-558)
protein phosphatase 2 regulatory subunit Bα (PPP2R2A) (from UniProt P63151 1-447)
PTBP1 (from UniProt P26599 1-557)
